The results in this text go back to article doi:10.1101/2020.03.25.007906 (bioRxiv, 2020).

Results are given in words; binding and its absence hold for the method and conditions named. In cells and extracts the contact can be indirect. Binding can be weak; no strength is given. Where a sequence is shown, tags or fusion partners need not be part of it.

The target of this test is C-terminal truncated DnaA with histidine tag, in E. coli (Deinococcus radiodurans R1). Put plainly: co-IP.

B1: recombinant PprA (natural protein, Deinococcus radiodurans, UniProt O32504 1-300, looked up)
chain: MLPLAFLICSGHNKGSMARAKAKDQTDGIYAAFDTLMSTAGVDSQIAALAASEADAGTLDAALTQSLQEAQGRWGLGLHHLRHEARLTDDGDIEILTDGRPSARVSEGFGALAQAYAPMQALDERGLSQWAALGEGYRAPGDLPLAQLKVLIEHARDFETDWSAGRGETFQRVWRKGDTLFVEVARPASAEAALSDAAWDVIASIKDRAFQRELMRRSEKDGMLGALLGARHAGAKANLAQLPEAHFTVQAFVQTLSGAAARNAEEYRAALKTAAAALEEYQGVTTRQLSEVLRHGLRES
B1: the binding result is given as “binds”.
